Experiment: Organic thin film transistor (FET) electric properties
Details: for operation of field-effect transistor without heat treatment: heat treatment at 260° C. for 30 seconds not performed
Description: A field-effect transistor having the structure shown in FIG. 1D was produced using Example Compound 1 synthesized in Example 1, in the following manner.
A N-doped silicon substrate having a 300 nm-thick thermal oxide film was immersed in concentrated sulfuric acid for 24 hours, followed by washing.
On this substrate, CT4112 (manufactured by KYOCERA Chemical Corporation) was spin coated, cured at approximately 200° C., to thereby produce a polyimide film having a thickness of 500 nm. Next, Example Compound 1 obtained in Example 1 was added in a chloroform solution to form the chloroform solution containing 0.5% by mass of Example Compound 1, followed by spin coating the solution, to thereby form a thin film of Example Compound 1. Next, the thin film of Example Compound 1 was heated on a hot plate at 260° C. for 30 seconds, so as to convert the thin film of Example Compound 1 to that of Example Compound 1-2.
Gold was then vacuum-deposited (back pressure: up to 10^−4 Pa, deposition rate: 1 Å/s to 2 Å/s, film thickness: 50 nm) on the organic semiconductive layer using a shadow mask, to thereby form a source electrode and a drain electrode (channel length: 50 μm, channel width: 2 mm).
The FET (field-effect transistor) element obtained in this manner was evaluated with respect to its electric properties under the atmospheric air by means of a semiconductor parameter analyzer 4156C manufactured by Agilent Technologies.
Note that, the following formula was used for calculating the field-effect mobility of the organic thin film transistor. Ids=μCinW(Vg−Vth)^2/2L
In the formula above, Cin represents a capacitance per unit area of the gate insulating film, W represents a channel width, L represents a cannel length, Vg represents a gate voltage, Ids represents a source-drain current, μ represents mobility, and Vth represents a gate threshold voltage at which a channel starts to be formed.
Field-effect transistors were produced in the same manner as in Example 8, except that the organic semiconductive material precursor and the conversion temperature of the organic semiconductive material precursor were changed respectively to those shown in Table 1, and that silver was used for the source electrode and the drain electrode.

[1] = precursor film heated at 260° C. for 30 seconds, gold source and drain electrodes, atmospheric air
[2] = as Example 8 but silver source and drain electrodes
[3] = silver source and drain electrodes, conversion temperature of precursor as in Table 1 (195-250° C.)

Structure (SMILES) | operation of field-effect transistor without heat treatment | transistor type (precursor film heated at 260° C. for 30 seconds, gold electrodes, atmospheric air) | Field-effect mobility [1] | threshold voltage [1] | Field-effect mobility [2] | threshold voltage [2] | Field-effect mobility [3] | On-off ratio [3]
CC(C)(C)C(=O)OC(Cc1ccccc1)c1cc2sc3cc4c(cc3c2s1)sc1cc(C(Cc2ccccc2)OC(=O)C(C)(C)C)sc14 (centres unmarked) [Example Compound 1] | not operated | p-type | 0.5 cm^2/Vs | −0.2 V |  |  |  | 
CCCCCC(=O)OC(Cc1ccccc1)c1cc2sc3cc4c(cc3c2s1)sc1cc(C(Cc2ccccc2)OC(=O)CCCCC)sc14 (centres unmarked) [Example Compound 2] | not operated |  | 0.33 cm^2/Vs | −0.6 V | 0.91 cm^2/Vs | −6.6 V |  | 
CCCCCOC(=O)OC(Cc1ccccc1)c1cc2sc3cc4c(cc3c2s1)sc1cc(C(Cc2ccccc2)OC(=O)OCCCCC)sc14 (centres unmarked) [Example Compound 11] |  |  |  |  |  |  | 0.7 cm^2/Vs | 10^5
COC(Cc1ccccc1)c1cc2sc3cc4c(cc3c2s1)sc1cc(C(Cc2ccccc2)OC)sc14 (centres unmarked) [Example Compound 12] |  |  |  |  |  |  | 1.6 cm^2/Vs | 10^6
O=C(CCl)OC(Cc1ccccc1)c1cc2sc3cc4c(cc3c2s1)sc1cc(C(Cc2ccccc2)OC(=O)CCl)sc14 (centres unmarked) [Example Compound 14] |  |  |  |  |  |  | 0.2 cm^2/Vs | 10^4
O=C(CCC(F)(F)F)OC(Cc1ccccc1)c1cc2sc3cc4c(cc3c2s1)sc1cc(C(Cc2ccccc2)OC(=O)CCC(F)(F)F)sc14 (centres unmarked) [Example Compound 15] |  |  |  |  |  |  | 0.6 cm^2/Vs | 10^4
